The supplement of paper PMC9454738
Several values for one entry are separate records, joined by “and”; a condition that tells them apart may be missing. Identical values can stand only once. Counter-ions that a name gives are not always drawn. ± gives the standard deviation of the averaged measurements. The list shows a part of the results. Single values are uncertain here, since repeats match poorly.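 Assays used MDA-MB-231 triple-negative breast cancer cells and their brain-metastatic line MDA-MB-231BRM, stably carrying empty vector, full-length GLI1 or truncated tGLI1. After 48 h, viability was read with CellTiter-Blue and normalized to 1% DMSO vehicle. tGLI1 selectivity meant viability fell 20% more in tGLI1 cells than in vector and GLI1 cells.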

Experiments:
Experiment in all cases: cell viability relative to vehicle (DMSO) control (fraction); higher = more viable cells (less growth inhibition)
Details in all cases: treatment time 48 h
MDA-MB-231 GLI1 = tested on: MDA-MB-231 GLI1
MDA-MB-231 Vector = tested on: MDA-MB-231 Vector
MDA-MB-231 tGLI1 = tested on: MDA-MB-231 tGLI1
MDA-MB-231BRM GLI1 = tested on: MDA-MB-231BRM GLI1
MDA-MB-231BRM Vector = tested on: MDA-MB-231BRM Vector
MDA-MB-231BRM tGLI1 = tested on: MDA-MB-231BRM tGLI1

Compound	cell viability (MDA-MB-231 GLI1; 0.05 µM)	cell viability (MDA-MB-231 GLI1; 0.5 µM)	cell viability (MDA-MB-231 GLI1; 5 µM)	cell viability (MDA-MB-231 Vector; 0.05 µM)	cell viability (MDA-MB-231 Vector; 0.5 µM)	cell viability (MDA-MB-231 Vector; 5 µM)	cell viability (MDA-MB-231 tGLI1; 0.05 µM)	cell viability (MDA-MB-231 tGLI1; 0.5 µM)	cell viability (MDA-MB-231 tGLI1; 5 µM)	cell viability (MDA-MB-231BRM GLI1; 0.05 µM)	cell viability (MDA-MB-231BRM GLI1; 0.5 µM)	cell viability (MDA-MB-231BRM GLI1; 5 µM)	cell viability (MDA-MB-231BRM Vector; 0.05 µM)	cell viability (MDA-MB-231BRM Vector; 0.5 µM)	cell viability (MDA-MB-231BRM Vector; 5 µM)	cell viability (MDA-MB-231BRM tGLI1; 0.05 µM)	cell viability (MDA-MB-231BRM tGLI1; 0.5 µM)	cell viability (MDA-MB-231BRM tGLI1; 5 µM)
CC(C)(C)c1cc(/C=C(\C#N)C(N)=S)cc(C(C)(C)C)c1O [Tyrphostin AG 879]	1.11	1.01	1.04	0.995	0.971	1.06	1.06	0.962	1.01	0.993	1	1.14	0.994	0.946	1.01	0.955	1.05	1.11
Cc1cnc(-c2cnc(NCCNc3ccc(C#N)cn3)nc2-c2ccc(Cl)cc2Cl)[nH]1	1.31 and 1.04	1.44 and 1.41	0.703 and 0.973	1.9 and 1.09	1.26 and 1.25	1.24 and 1.29	0.478 and 1.08	1.35 and 1.32	1.4 and 0.93	1.15 and 0.903	1.07 and 0.989	0.917 and 1.01	0.562 and 1.01	1.02 and 1.03	0.559 and 1.02	0.971 and 1.01	1.15 and 0.981	0.974 and 1.09
CC(C)(C)c1cc(C(C)(C)C)c(NC(=O)c2c[nH]c3ccccc3c2=O)cc1O [Ivacaftor (VX-770)]	1.11	0.979	0.458	0.959	1.15	0.344	0.975	1	0.308	0.95	0.999	0.757	0.937	0.881	0.855	0.977	0.963	0.901
C[C@@H]1COC(Nc2ccc3ncnc(Nc4ccc(OCc5nccs5)c(Cl)c4)c3c2)=N1 [Varlitinib]	1.2	1.12	0.845	1.34	1.28	1.02	1.47	1.13	0.869	0.976	0.943	0.804	1.02	0.963	0.843	1.09	1.04	0.874
CCN(CC)CCNC(=O)c1c(C)[nH]c(/C=C2\C(=O)Nc3ccc(F)cc32)c1C [Sunitinib Malate]	1.31	1.2	-0.0645	0.702	1.01	0.0615	1	1.08	0.179	1.15	0.848	0.96	0.882	0.806	1.06	0.957	0.822	0.879
c1cc(-c2cnn3cc(-c4ccc(OCCN5CCCCC5)cc4)cnc23)ccn1 [Dorsomorphin (Compound C)]	2.4	2.93	1.21	1.5	1.29	0.629	1.39	1.5	0.765	0.827	0.723	0.629	0.912	0.738	0.691	1.2	0.549	1
CN1CCN(c2ccc(C(=O)Nc3n[nH]c4ccc(Cc5cc(F)cc(F)c5)cc34)c(NC3CCOCC3)c2)CC1 [Entrectinib (RXDX-101)]	2.25	3.1	0.0684	1.24	1.26	-0.0838	1.4	1.33	-0.137	0.811	0.714	0.621	0.914	0.734	0.653	1.16	1.07	0.81
CN(c1ccccc1CNc1nc(Nc2ccc3c(c2)CC(=O)N3)ncc1C(F)(F)F)S(C)(=O)=O	2.27	2.73	0.435	1.39	1.21	0.16	1.4	1.18	0.205	0.691	0.651	0.677	0.895	0.771	0.629	1.18	1.02	0.989
CS(=O)(=O)CCNCc1ccc(-c2ccc3ncnc(Nc4ccc(OCc5cccc(F)c5)c(Cl)c4)c3c2)o1	1.05	1.59	0.87	1.27	1.11	0.801	1.01	1.31	0.803	0.896	0.829	0.711	0.901	0.869	0.732	0.907	0.877	0.625
Cc1cnc(Nc2ccc(OCCN3CCCC3)cc2)nc1Nc1cccc(S(=O)(=O)NC(C)(C)C)c1	1.36	0.818	0.141	1.27	1.13	0.261	1.34	1	0.0522	1.07	0.971	0.347	1	0.964	0.405	1.04	1.01	0.331
O=C(O)[C@]1(Cc2cccc(Nc3nccs3)n2)CC[C@@H](Oc2cccc(Cl)c2F)CC1	1.21	0.934	0.596	1.25	0.966	0.335	1.27	0.816	0.652	1.06	1.11	1.05	1.1	1.15	1.13	1.12	1.16	1.04
CN1CCN(c2ccc3nc(-c4c(N)c5c(F)cccc5[nH]c4=O)[nH]c3c2)CC1 [Dovitinib (TKI-258) Dilactic Acid]	1.1	1.02	0.0644	1.32	1.2	0.0403	1.33	1.02	-0.0709	0.921	0.795	0.44	0.901	0.837	0.429	0.934	0.845	0.455
Cc1[nH]c(/C=C2\C(=O)Nc3ccccc32)c(C)c1CCC(=O)O [TSU-68 (SU6668, Orantinib)]	1.36	1.4	1.47	1.88	1.27	1.4	1.11	1.26	1.22	1.11	1.11	0.906	1.17	1.05	0.92	0.963	1.1	0.941
CC[C@@]1(O)C(=O)OCc2c1cc1n(c2=O)Cc2cc3c(CN(C)C)c(O)ccc3nc2-1 [Topotecan HCl]	0.861	0.408	-0.206	0.534	0.212	0.264	0.707	0.365	-0.316	1.18	1.03	0.697	1.19	1.05	0.758	1.24	1.08	0.793
C#Cc1cccc(Nc2ncnc3cc(OCCOC)c(OCCOC)cc23)c1 [Erlotinib HCl (OSI-744)]	1.37	1.72	1.75	1.42	1.24	1.12	1.09	1.36	1.21	0.901	0.927	0.851	0.828	0.921	0.921	0.907	0.941	0.898
CN(C)C/C=C/C(=O)Nc1cc2c(Nc3ccc(F)c(Cl)c3)ncnc2cc1O[C@H]1CCOC1 [Afatinib (BIBW2992)]	1.15 ± 0.14	1.48 ± 0.069	-0.273 ± 0.11	1.049 ± 0.0083	1.09 ± 0.036	-0.369 ± 0.41	0.998 ± 0.17	1.01 ± 0.26	-0.285 ± 0.2	0.909 ± 0.062	0.8837 ± 0.0022	0.834 ± 0.15	0.906 ± 0.12	0.971 ± 0.16	0.801 ± 0.12	0.949 ± 0.038	0.9 ± 0.042	0.821 ± 0.033
C[C@@H](Oc1cc(-n2cnc3ccc(CN4CCN(C)CC4)cc32)sc1C(N)=O)c1ccccc1C(F)(F)F	0.122	0.127	0.23	0.167	0.305	0.194	-0.0272	0.359	0.265	0.858	1.38	0.938	0.884	1.24	0.983	0.676	1.25	0.818
Cc1cc(NC(=O)c2cccc(NC(=O)/C=C/CN(C)C)c2)ccc1Nc1nccc(-c2cccnc2)n1	1.46	1.57	0.478	1.28	1.36	0.721	1.31	1.37	0.475	0.997	0.903	0.827	1.05	0.948	0.808	0.984	0.904	0.728
C[C@H]1O[C@H](O[C@H]2[C@H](O)[C@@H](O)[C@@H](O[C@H]3[C@H](O)[C@@H](O)C(O)O[C@@H]3CO)O[C@@H]2CO)[C@H](O)[C@@H](O)[C@@H]1N[C@H]1C=C(CO)[C@@H](O)[C@H](O)[C@H]1O (stereo partly drawn) [Acarbose]	1.19	1.07	1.01	1.17	0.913	1	1	1.01	0.952	1.01	1.02	0.992	1.05	1.01	0.984	1.05	1.04	1.01
CC(C)C[C@H](NC(=O)[C@H](Cc1ccccc1)NC(=O)c1cnccn1)B(O)O [Bortezomib (Velcade)]	-0.313	-0.333	-0.361	-0.576	-0.662	-0.659	-0.407	-0.451	-0.46	1.08	0.812	0.787	1.04	0.815	0.736	1.07	0.797	0.729
Cn1cc(-c2cnn3c(N)c(Br)c([C@@H]4CCCNC4)nc23)cn1	1.14	1.19	0.537	1.27	1.17	0.949	1.25	1.13	0.744	0.993	1.05	1.11	1.07	1.04	1.06	1.01	1.1	1.04
CC[C@@H]([C@H](C)O)n1ncn(-c2ccc(N3CCN(c4ccc(OC[C@@H]5CO[C@@](Cn6cncn6)(c6ccc(F)cc6F)C5)cc4)CC3)cc2)c1=O [Posaconazole]	1.12	1.09	0.842	1.07	1.21	0.906	0.999	1.04	0.853	1.08	0.977	0.596	1.05	0.967	0.775	1.09	0.939	0.822
CNC(=O)CN1CCC(Oc2cc3c(Nc4cccc(Cl)c4F)ncnc3cc2OC)CC1 [AZD8931 (Sapitinib)]	1.38	1.35	1.39	1.68	1.2	1.08	1.3	1.33	1.13	1.09	1.12	0.903	1.16	1.03	1.01	1.08	1.16	0.935
CCOc1cc2ncc(C#N)c(Nc3ccc(F)c(Cl)c3)c2cc1NC(=O)/C=C/CN(C)C [Pelitinib (EKB-569)]	1.32	1.27	-0.023	1.94	1.19	0.0704	1.15	1.21	0.0146	0.912	1.06	0.747	1.12	0.95	0.523	1.02	1.09	0.674
C=CC(=O)Nc1cccc(Sc2nc(Nc3ccc(N4CCN(C)CC4)cc3)ncc2Cl)c1	1.59	1.5	-0.201	1.51	1.29	0.0996	1.13	1.42	-0.144	1	1.01	0.831	0.929	1.1	0.862	1.05	1.03	0.8
N[C@@H]1CCCN(c2c(/C=C3\SC(=O)NC3=O)cccc2-c2ccccc2)C1	1.15	1.66	0.934	1.23	1.27	1.35	1.29	1.35	1.33	0.984	0.984	0.928	1.03	1.05	1	0.999	0.992	1.01
